The values that follow come from PubChem BioAssay AID1347423 (Functional Genomics Laboratory (NCATS/FGL), 2020).

Out of some 52,000 sequences screened, about 210 (0.4%) were called active.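 Rule for the calls: active = gene whose silencing raises cell survival under the drug, median off-target-corrected z-score across its silencing RNAs 2 or more; inactive = the rest.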 This is one part of the list.

The nature of this test: Resistance to Poly (ADP-Ribose) Polymerase inhibitor: Gene Identification via Genome-wide siRNA Screen. The following applies: mouse BRCA2 R2336H ES cells, olaparib, CellTiter-Glo viability; hits give high values. In outline:
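Mouse BRCA2 R2336H ES cells were reverse-transfected with siRNA (20 nM final), treated at 48 h with 500 nM olaparib, and read by CellTiter-Glo after 72 h. Scores: MAD-based z per siRNA, median per gene, seed off-target correction.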
Turning to “GGGCUGUUCCAAAACACAGTT against A930017E24Rik”, the z-score was inactive: -0.0576. Next, GGAAUUAGACUUCUGCGUCTT against Adamts15: inactive: -0.347; GGAAAGUCCACUCUAGUCCTT against Dusp16: inactive: -0.34.

In the case of GGACAAAUUCUACAUCAGCTT against Adam8, the z-score is inactive: 0.28. For the sequence GGUAUCAAGUAUGACCUAGTT against Lrrc8, the z-score was inactive: -0.0351.

As to GGUCCUUCUUGUGUAGUCATT against Plac1, the z-score is inactive: -0.761. On to GGUCUCUCCCAUGUUAAUCTT against Lcn3, for which the z-score was inactive: 1.91. For the sequence GGUACUAUCACAUCAUUAATT against Olfr1106, the z-score is inactive: 0.877. Next, GCAUAUGGAGAGAAUCCCATT against Apg4b: inactive: 2.59; “GGUGUUUGAUGUGGUGAACTT against 4632422M10Rik”: inactive: -1.38. In the case of “GCUCCUAAUGGAAAGAACGTT against 2610311B01Rik”, the z-score was inactive: 0.469. Next, GGGCAACUACGAGUCUCUCTT against Zfp398: inactive: -0.15. Next, “GGAUUUUUCUAAUCGCUUGTT against 6820429M01”: inactive: 0.351; GCCAGAAGACUGUAUACCATT against Rp9h: inactive: 0.317. Turning to GGGCUCCUUUUUUUUUUUUTT against Frat1, the z-score is inactive: -0.554. Next, GCCAUGUUCAAUAUUAGGATT against Rps3a: inactive: -3.04; GGAAGUCAACAAUGCAUUCTT against Olfr1451: inactive: -0.0173. GCACCUCCUGGGAUUACAUTT against Crp: the z-score was inactive: 0.63.

In the case of UGAGUUGUUUCCAGCUAAATT against Urp, the z-score was inactive: 1.42. Next, “GCCCUCCUGUGAGUUUCUCTT against 8430406I07Rik”: inactive: 0.022. Turning to “GCACAGAUAUGAGAUCUGUTT against 2310058J06Rik”, the z-score was inactive: 1.68. Next, GCUGAACCUAUGAGGGAGATT against Bat4: inactive: -0.735; GGAUGGACCAUCAGCUUCATT against Olfr1152: inactive: -1.51; “GGGAUGAUAGAACUUCUCATT against 1700048E23Rik”: inactive: -2.22. Next, “GCAUGAUUAGGUUUCAGCATT against 2310057M21Rik”: inactive: 1.13; GGAAGGAGAAGGGUAGCAATT against BC034054: inactive: 0.0863. With “GCCGGACAGGGAAACUUAATT against 4933402P03Rik”, the z-score is inactive: -1.06.

GCAUUCGUUCGGCACGUGUTT against Bcl2l14: the z-score was inactive: 2.18.
